{"source": "the supplement of paper PMC8728848", "binders": {"B1": {"name": "MFG-E8 (Mus musculus), P21956 (protein)", "chain": "MQVSRVLAALCGMLLCASGLFAASGDFCDSSLCLNGGTCLTGQDNDIYCLCPEGFTGLVCNETERGPCSPNPCYNDAKCLVTLDTQRGDIFTEYICQCPVGYSGIHCETETNYYNLDGEYMFTTAVPNTAVPTPAPTPDLSNNLASRCSTQLGMEGGAIADSQISASSVYMGFMGLQRWGPELARLYRTGIVNAWTASNYDSKPWIQVNLLRKMRVSGVMTQGASRAGRAEYLKTFKVAYSLDGRKFEFIQDESGGDKEFLGNLDNNSLKVNMFNPTLEAQYIKLYPVSCHRGCTLRFELLGCELHGCSEPLGLKNNTIPDSQMSASSSYKTWNLRAFGWYPHLGRLDNQGKINAWTAQSNSAKEWLQVDLGTQRQVTGIITQGARDFGHIQYVASYKVAHSDDGVQWTVYEEQGSSKVFQGNLDNNSHKKNIFEKPFMARYVRVLPVSWHNRITLRLELLGC"}}, "assay_in_all_cases": "glycan array binding signal (z-score within array); higher = stronger binding", "conditions_in_all_cases": "glycan notation: IUPAC condensed, linker removed", "key": {"[1]": {"molecular_target": "Gal(b1-3)GlcNAc(b1-3)Gal(b1-4)GlcNAc(b1-2)Man(a1-3)[Gal(b1-3)GlcNAc(b1-3)Gal(b1-4)GlcNAc(b1-2)Man(a1-6)]Man(b1-4)GlcNAc(b1-4)GlcNAc", "method_in_brief": "(§1)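 Glycan array data were curated from 3228 arrays in the Consortium for Functional Glycomics database and kept only where the protein sequence was available. Glycan names were converted to IUPAC-condensed notation, and columns mapping to the same glycan were averaged. The binding signal is a within-array Z-score, averaged across arrays of the same protein sequence at different concentrations or buffers and across linkers. Negative Z-scores can be read as non-binding.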"}, "[2]": {"molecular_target": "Gal(b1-3)GlcNAc(b1-3)Gal(b1-4)GlcNAc(b1-2)[Gal(b1-3)GlcNAc(b1-3)Gal(b1-4)GlcNAc(b1-6)]Man(a1-6)[Gal(b1-3)GlcNAc(b1-3)Gal(b1-4)GlcNAc(b1-2)Man(a1-3)]Man(b1-4)GlcNAc(b1-4)[Fuc(a1-6)]GlcNAc", "method_in_brief": "as §1"}, "[3]": {"molecular_target": "Gal(b1-3)GlcNAc(b1-3)Gal(b1-4)GlcNAc(b1-3)Gal(b1-4)GlcNAc(b1-2)[Gal(b1-3)GlcNAc(b1-3)Gal(b1-4)GlcNAc(b1-3)Gal(b1-4)GlcNAc(b1-6)]Man(a1-6)[Gal(b1-3)GlcNAc(b1-3)Gal(b1-4)GlcNAc(b1-3)Gal(b1-4)GlcNAc(b1-2)Man(a1-3)]Man(b1-4)GlcNAc(b1-4)[Fuc(a1-6)]GlcNAc", "method_in_brief": "as §1"}, "[4]": {"molecular_target": "Gal(b1-3)GlcNAc(b1-3)Gal(b1-4)GlcNAc(b1-6)[Gal(b1-3)GlcNAc(b1-3)]Gal(b1-4)Glc", "method_in_brief": "as §1"}, "[5]": {"molecular_target": "Gal(b1-3)GlcNAc(b1-3)Gal(b1-4)[Fuc(a1-3)]GlcNAc", "method_in_brief": "as §1"}, "[6]": {"molecular_target": "Gal(b1-3)GlcNAc(b1-3)Gal(b1-4)[Fuc(a1-3)]GlcNAc(b1-6)[Gal(b1-3)GlcNAc(b1-3)]Gal(b1-4)Glc", "method_in_brief": "as §1"}, "[7]": {"molecular_target": "Gal(b1-3)GlcNAc(b1-3)GalNAc", "method_in_brief": "as §1"}, "[8]": {"molecular_target": "Gal(b1-3)GlcNAc(b1-6)Gal(b1-4)GlcNAc", "method_in_brief": "as §1"}, "[9]": {"molecular_target": "Gal(b1-3)GlcNAc(b1-6)GalNAc", "method_in_brief": "as §1"}, "[10]": {"molecular_target": "Gal(b1-3)GlcNAc(b1-6)[Gal(b1-3)]GalNAc", "method_in_brief": "as §1"}, "Gal(b1-3)GlcNAc6S": {"molecular_target": "Gal(b1-3)GlcNAc6S", "method_in_brief": "as §1"}, "[11]": {"molecular_target": "Gal(b1-3)[Fuc(a1-4)]GlcNAc", "method_in_brief": "as §1"}, "[12]": {"molecular_target": "Gal(b1-3)[Fuc(a1-4)]GlcNAc(b1-2)Man", "method_in_brief": "as §1"}, "[13]": {"molecular_target": "Gal(b1-3)[Fuc(a1-4)]GlcNAc(b1-2)Man(a1-3)[Gal(b1-3)[Fuc(a1-4)]GlcNAc(b1-2)Man(a1-6)]Man(b1-4)GlcNAc(b1-4)GlcNAc", "method_in_brief": "as §1"}, "[14]": {"molecular_target": "Gal(b1-3)[Fuc(a1-4)]GlcNAc(b1-2)Man(a1-3)[Gal(b1-3)[Fuc(a1-4)]GlcNAc(b1-2)Man(a1-6)]Man(b1-4)GlcNAc(b1-4)[Fuc(a1-6)]GlcNAc", "method_in_brief": "as §1"}, "[15]": {"molecular_target": "Gal(b1-3)[Fuc(a1-4)]GlcNAc(b1-3)Gal(b1-3)[Fuc(a1-4)]GlcNAc", "method_in_brief": "as §1"}, "[16]": {"molecular_target": "Gal(b1-3)[Fuc(a1-4)]GlcNAc(b1-3)Gal(b1-4)GlcNAc", "method_in_brief": "as §1"}, "[17]": {"molecular_target": "Gal(b1-3)[Fuc(a1-4)]GlcNAc(b1-3)Gal(b1-4)[Fuc(a1-3)]GlcNAc", "method_in_brief": "as §1"}, "[18]": {"molecular_target": "Gal(b1-3)[Fuc(a1-4)]GlcNAc(b1-6)GalNAc", "method_in_brief": "as §1"}, "[19]": {"molecular_target": "Gal(b1-3)[GlcNAc(b1-6)]GalNAc", "method_in_brief": "as §1"}, "[20]": {"molecular_target": "Gal(b1-3)[Neu5Ac(a2-6)]GalNAc", "method_in_brief": "as §1"}, "[21]": {"molecular_target": "Gal(b1-3)[Neu5Ac(a2-6)]GlcNAc(b1-4)Gal(b1-4)Glc", "method_in_brief": "as §1"}, "[22]": {"molecular_target": "Gal(b1-3)[Neu5Ac(a2-6)]GlcNAc(b1-6)Gal(b1-4)Glc", "method_in_brief": "as §1"}, "[23]": {"molecular_target": "Gal(b1-3)[Neu5Ac(b2-6)]GalNAc", "method_in_brief": "as §1"}, "Gal(b1-4)Gal": {"molecular_target": "Gal(b1-4)Gal", "method_in_brief": "as §1"}, "[24]": {"molecular_target": "Gal(b1-4)GalNAc(a1-3)[Fuc(a1-2)]Gal(b1-4)GlcNAc", "method_in_brief": "as §1"}, "[25]": {"molecular_target": "Gal(b1-4)GalNAc(b1-3)[Fuc(a1-2)]Gal(b1-4)GlcNAc", "method_in_brief": "as §1"}, "Gal(b1-4)Glc": {"molecular_target": "Gal(b1-4)Glc", "method_in_brief": "as §1"}, "Gal(b1-4)Glc6S": {"molecular_target": "Gal(b1-4)Glc6S", "method_in_brief": "as §1"}, "Gal(b1-4)GlcNAc": {"molecular_target": "Gal(b1-4)GlcNAc", "method_in_brief": "as §1"}, "[26]": {"molecular_target": "Gal(b1-4)GlcNAc(a1-6)Gal(b1-4)GlcNAc", "method_in_brief": "as §1"}, "Gal(b1-4)GlcNAc(b1-2)Man": {"molecular_target": "Gal(b1-4)GlcNAc(b1-2)Man", "method_in_brief": "as §1"}, "[27]": {"molecular_target": "Gal(b1-4)GlcNAc(b1-2)Man(a1-3)Man(b1-4)GlcNAc(b1-4)GlcNAc", "method_in_brief": "as §1"}, "[28]": {"molecular_target": "Gal(b1-4)GlcNAc(b1-2)Man(a1-3)[Gal(b1-4)GlcNAc(b1-2)Man(a1-6)]Man(b1-4)GlcNAc(b1-4)GlcNAc", "method_in_brief": "as §1"}, "[29]": {"molecular_target": "Gal(b1-4)GlcNAc(b1-2)Man(a1-3)[Gal(b1-4)GlcNAc(b1-2)Man(a1-6)]Man(b1-4)GlcNAc(b1-4)[Fuc(a1-6)]GlcNAc", "method_in_brief": "as §1"}, "[30]": {"molecular_target": "Gal(b1-4)GlcNAc(b1-2)Man(a1-3)[Gal(b1-4)GlcNAc(b1-2)Man(a1-6)][Gal(b1-4)GlcNAc(b1-4)]Man(b1-4)GlcNAc(b1-4)[Fuc(a1-6)]GlcNAc", "method_in_brief": "as §1"}, "[31]": {"molecular_target": "Gal(b1-4)GlcNAc(b1-2)Man(a1-3)[Gal(b1-4)GlcNAc(b1-2)Man(a1-6)][GlcNAc(b1-4)]Man(b1-4)GlcNAc(b1-4)[Fuc(a1-6)]GlcNAc", "method_in_brief": "as §1"}}, "note": "This is one part of the list.", "data": [{"binder": "B1", "values": [{"measurement": "glycan array binding signal (z-score)", "setting": "[1]", "value": -0.424}, {"measurement": "glycan array binding signal (z-score)", "setting": "[2]", "value": -0.699}, {"measurement": "glycan array binding signal (z-score)", "setting": "[3]", "value": 0.221}, {"measurement": "glycan array binding signal (z-score)", "setting": "[4]", "value": -0.966}, {"measurement": "glycan array binding signal (z-score)", "setting": "[5]", "value": 1.5}, {"measurement": "glycan array binding signal (z-score)", "setting": "[6]", "value": -0.11}, {"measurement": "glycan array binding signal (z-score)", "setting": "[7]", "value": -0.036}, {"measurement": "glycan array binding signal (z-score)", "setting": "[8]", "value": 0.294}, {"measurement": "glycan array binding signal (z-score)", "setting": "[9]", "value": -0.538}, {"measurement": "glycan array binding signal (z-score)", "setting": "[10]", "value": 0.931}, {"measurement": "glycan array binding signal (z-score)", "setting": "Gal(b1-3)GlcNAc6S", "value": 0.712}, {"measurement": "glycan array binding signal (z-score)", "setting": "[11]", "value": 0.682}, {"measurement": "glycan array binding signal (z-score)", "setting": "[12]", "value": -0.412}, {"measurement": "glycan array binding signal (z-score)", "setting": "[13]", "value": 0.151}, {"measurement": "glycan array binding signal (z-score)", "setting": "[14]", "value": 0.056}, {"measurement": "glycan array binding signal (z-score)", "setting": "[15]", "value": 0.302}, {"measurement": "glycan array binding signal (z-score)", "setting": "[16]", "value": -0.022}, {"measurement": "glycan array binding signal (z-score)", "setting": "[17]", "value": 0.048}, {"measurement": "glycan array binding signal (z-score)", "setting": "[18]", "value": -0.161}, {"measurement": "glycan array binding signal (z-score)", "setting": "[19]", "value": 0.343}, {"measurement": "glycan array binding signal (z-score)", "setting": "[20]", "value": -0.539}, {"measurement": "glycan array binding signal (z-score)", "setting": "[21]", "value": 0.041}, {"measurement": "glycan array binding signal (z-score)", "setting": "[22]", "value": 0.143}, {"measurement": "glycan array binding signal (z-score)", "setting": "[23]", "value": 0.16}, {"measurement": "glycan array binding signal (z-score)", "setting": "Gal(b1-4)Gal", "value": -0.402}, {"measurement": "glycan array binding signal (z-score)", "setting": "[24]", "value": 0.07}, {"measurement": "glycan array binding signal (z-score)", "setting": "[25]", "value": 0.509}, {"measurement": "glycan array binding signal (z-score)", "setting": "Gal(b1-4)Glc", "value": -0.798}, {"measurement": "glycan array binding signal (z-score)", "setting": "Gal(b1-4)Glc6S", "value": 0.026}, {"measurement": "glycan array binding signal (z-score)", "setting": "Gal(b1-4)GlcNAc", "value": -0.495}, {"measurement": "glycan array binding signal (z-score)", "setting": "[26]", "value": -0.24}, {"measurement": "glycan array binding signal (z-score)", "setting": "Gal(b1-4)GlcNAc(b1-2)Man", "value": -0.513}, {"measurement": "glycan array binding signal (z-score)", "setting": "[27]", "value": -0.078}, {"measurement": "glycan array binding signal (z-score)", "setting": "[28]", "value": 0.193}, {"measurement": "glycan array binding signal (z-score)", "setting": "[29]", "value": 0.021}, {"measurement": "glycan array binding signal (z-score)", "setting": "[30]", "value": 0.343}, {"measurement": "glycan array binding signal (z-score)", "setting": "[31]", "value": -0.591}]}]}
